In patent US9926581B2, “Fagopyritol synthase genes and uses thereof” (Cornell Research Foundation, Inc., priority 2002, dated 2018):
Where “and” joins values, the source holds several entries; their conditions need not be identical. Identical values can stand only once.

How the values were obtained:
buckwheat explants = test: Buckwheat explant feeding with 100 mM cyclitol in 1% sucrose for 5 days, soluble carbohydrates in embryos and leaf disks; type: in vivo, Fagopyrum esculentum; conditions: replicate values
buckwheat embryos = test: Soluble carbohydrates in buckwheat embryos from seeds matured at 15, 22 or 30° C.; type: in vivo, Fagopyrum esculentum Moench; conditions: for Soluble carbohydrates in buckwheat embryos: harvested at 28 DAP and dried 2 weeks at 12% RH, mean ± SE
[1] = fed 100 mM D-chiro-inositol in 1% sucrose solution 5 days, 2 days slow drying
[2] = fed 100 mM D-chiro-inositol in 1% sucrose solution 5 days, 4 days slow drying
[3] = fed 100 mM D-chiro-inositol in 1% sucrose solution 5 days, 7 days slow drying
[4] = fed 100 mM D-chiro-inositol in 1% sucrose solution, after 1 day feeding
[5] = fed 100 mM D-chiro-inositol in 1% sucrose solution, after 5 days feeding
[6] = fed 100 mM D-pinitol in 1% sucrose solution 5 days, 2 days slow drying
[7] = fed 100 mM D-pinitol in 1% sucrose solution 5 days, 4 days slow drying
[8] = fed 100 mM D-pinitol in 1% sucrose solution 5 days, 7 days slow drying
[9] = fed 100 mM D-pinitol in 1% sucrose solution, after 1 day feeding
[10] = fed 100 mM D-pinitol in 1% sucrose solution, after 5 days feeding
[11] = fed 100 mM myo-inositol in 1% sucrose solution 5 days, 2 days slow drying
[12] = fed 100 mM myo-inositol in 1% sucrose solution 5 days, 4 days slow drying
[13] = fed 100 mM myo-inositol in 1% sucrose solution 5 days, 7 days slow drying
[14] = fed 100 mM myo-inositol in 1% sucrose solution, after 1 day feeding
[15] = fed 100 mM myo-inositol in 1% sucrose solution, after 5 days feeding
[16] = fed 1% sucrose (without cyclitols) solution 5 days, 2 days slow drying
[17] = fed 1% sucrose (without cyclitols) solution 5 days, 4 days slow drying
[18] = fed 1% sucrose (without cyclitols) solution 5 days, 7 days slow drying
[19] = fed 1% sucrose (without cyclitols) solution, after 5 days feeding

Compound	Soluble carbohydrates in embryos of seeds from buckwheat explants (buckwheat explants; [1])	Soluble carbohydrates in embryos of seeds from buckwheat explants (buckwheat explants; [2])	Soluble carbohydrates in embryos of seeds from buckwheat explants (buckwheat explants; [3])	Soluble carbohydrates in embryos of seeds from buckwheat explants (buckwheat explants; [4])	Soluble carbohydrates in embryos of seeds from buckwheat explants (buckwheat explants; [5])	Soluble carbohydrates in embryos of seeds from buckwheat explants (buckwheat explants; [6])	Soluble carbohydrates in embryos of seeds from buckwheat explants (buckwheat explants; [7])	Soluble carbohydrates in embryos of seeds from buckwheat explants (buckwheat explants; [8])	Soluble carbohydrates in embryos of seeds from buckwheat explants (buckwheat explants; [9])	Soluble carbohydrates in embryos of seeds from buckwheat explants (buckwheat explants; [10])	Soluble carbohydrates in embryos of seeds from buckwheat explants (buckwheat explants; [11])	Soluble carbohydrates in embryos of seeds from buckwheat explants (buckwheat explants; [12])	Soluble carbohydrates in embryos of seeds from buckwheat explants (buckwheat explants; [13])	Soluble carbohydrates in embryos of seeds from buckwheat explants (buckwheat explants; [14])	Soluble carbohydrates in embryos of seeds from buckwheat explants (buckwheat explants; [15])	Soluble carbohydrates in embryos of seeds from buckwheat explants (buckwheat explants; [16])	Soluble carbohydrates in embryos of seeds from buckwheat explants (buckwheat explants; [17])	Soluble carbohydrates in buckwheat embryos (buckwheat embryos; seeds matured at 15° C.)	Soluble carbohydrates in buckwheat embryos (buckwheat embryos; seeds matured at 22° C.)	Soluble carbohydrates in buckwheat embryos (buckwheat embryos; seeds matured at 30° C.)	also measured
OCC1O[C@@H](O[C@H]2C(O)C(O)[C@H](O)C(O)C2O)C(O)C(O)[C@H]1O (stereo partly drawn) [Fagopyritol A1, α-D-galactopyranosyl-(1→3)-1D-chiro-inositol]	25.53 μg/embryo and 117.32 μg/embryo	27.38 μg/embryo and 42.86 μg/embryo and 52.16 μg/embryo	41.11 μg/embryo and 21.71 μg/embryo and 27.96 μg/embryo	0 μg/embryo	10.71 μg/embryo and 133.47 μg/embryo and 69.49 μg/embryo	2.38 μg/embryo and 29.81 μg/embryo and 23.96 μg/embryo	16.78 μg/embryo and 39.10 μg/embryo and 15.80 μg/embryo	10.82 μg/embryo and 12.44 μg/embryo and 20.01 μg/embryo	0 μg/embryo	0 μg/embryo and 21.43 μg/embryo and 22.91 μg/embryo	62.19 μg/embryo and 29.81 μg/embryo	19.72 μg/embryo and 41.42 μg/embryo	14.49 μg/embryo and 34.61 μg/embryo	0 μg/embryo	18.90 μg/embryo and 10.94 μg/embryo	12.27 μg/embryo and 51.20 μg/embryo and 76.65 μg/embryo	16.02 μg/embryo and 14.64 μg/embryo	45.59 ± 5.24 μg/embryo	34.15 ± 10.02 μg/embryo	21.78 ± 1.55 μg/embryo	Soluble carbohydrates in embryos of seeds from buckwheat explants (buckwheat explants; [18]): 23.01 μg/embryo and 15.97 μg/embryo; Soluble carbohydrates in embryos of seeds from buckwheat explants (buckwheat explants; [19]): 0.70 μg/embryo and 27.67 μg/embryo
OCC1O[C@H](OCC2O[C@@H](O[C@H]3C(O)C(O)[C@H](O)C(O)[C@@H]3O)C(O)[C@H](O)[C@H]2O)C(O)[C@H](O)[C@H]1O (stereo partly drawn) [Fagopyritol A2, α-D-galactopyranosyl-(1→6)-α-D-galactopyranosyl-(1→3)-1D-chiro-inositol]	6.43 μg/embryo and 4.91 μg/embryo	4.19 μg/embryo and 2.04 μg/embryo and 4.42 μg/embryo	2.57 μg/embryo and 1.19 μg/embryo and 1.33 μg/embryo	0 μg/embryo	0 μg/embryo and 10.11 μg/embryo and 1.93 μg/embryo	0 μg/embryo and 9.52 μg/embryo and 6.89 μg/embryo	6.18 μg/embryo and 6.64 μg/embryo and 4.73 μg/embryo	1.30 μg/embryo and 0.71 μg/embryo and 2.21 μg/embryo	0 μg/embryo	0 μg/embryo (2×) and 4.65 μg/embryo	38.72 μg/embryo and 10.89 μg/embryo	11.49 μg/embryo and 4.52 μg/embryo	2.54 μg/embryo and 2.64 μg/embryo	0 μg/embryo	2.60 μg/embryo and 0 μg/embryo	0.58 μg/embryo and 12.29 μg/embryo and 8.09 μg/embryo	10.60 μg/embryo and 6.87 μg/embryo	3.66 ± 0.84 μg/embryo	11.12 ± 3.04 μg/embryo	15.52 ± 0.68 μg/embryo	Soluble carbohydrates in embryos of seeds from buckwheat explants (buckwheat explants; [18]): 7.35 μg/embryo and 6.34 μg/embryo; Soluble carbohydrates in embryos of seeds from buckwheat explants (buckwheat explants; [19]): 0 μg/embryo and 8.12 μg/embryo; content in embryos of seeds matured at 30° C. relative to 15° C. (buckwheat embryos; after 2 weeks of drying of seeds): about 4 times
digalactosyl myo-inositol	–	–	–	–	–	–	–	–	–	–	–	–	–	–	–	–	–	0.25 ± 0.25 μg/embryo	0.55 ± 0.55 μg/embryo	1.69 ± 0.73 μg/embryo	Minor soluble carbohydrates in buckwheat embryos (buckwheat embryos; maturation temperature 15° C., 16 DAP): 0 μg/embryo; Minor soluble carbohydrates in buckwheat embryos (buckwheat embryos; maturation temperature 15° C., 20 DAP): 0 μg/embryo; Minor soluble carbohydrates in buckwheat embryos (buckwheat embryos; maturation temperature 15° C., 28 DAP): 0 μg/embryo; Minor soluble carbohydrates in buckwheat embryos (buckwheat embryos; maturation temperature 15° C., 28 DAP + 2 wk 12% RH): 0.25 ± 0.25 μg/embryo; Minor soluble carbohydrates in buckwheat embryos (buckwheat embryos; maturation temperature 22° C., 16 DAP): 0 μg/embryo; Minor soluble carbohydrates in buckwheat embryos (buckwheat embryos; maturation temperature 22° C., 20 DAP): 1.38 ± 0.84 μg/embryo; Minor soluble carbohydrates in buckwheat embryos (buckwheat embryos; maturation temperature 22° C., 28 DAP): 1.12 ± 0.18 μg/embryo; Minor soluble carbohydrates in buckwheat embryos (buckwheat embryos; maturation temperature 22° C., 28 DAP + 2 wk 12% RH): 0.55 ± 0.55 μg/embryo; Minor soluble carbohydrates in buckwheat embryos (buckwheat embryos; maturation temperature 30° C., 16 DAP): 1.02 ± 1.02 μg/embryo; Minor soluble carbohydrates in buckwheat embryos (buckwheat embryos; maturation temperature 30° C., 20 DAP): 3.54 ± 2.51 μg/embryo; Minor soluble carbohydrates in buckwheat embryos (buckwheat embryos; maturation temperature 30° C., 28 DAP): 2.21 ± 0.32 μg/embryo; Minor soluble carbohydrates in buckwheat embryos (buckwheat embryos; maturation temperature 30° C., 28 DAP + 2 wk 12% RH): 1.69 ± 0.73 μg/embryo
